Values quoted from earlier work in patent US11168047B2, “Cocrystal of 2-[(1R,6R)-6-isopropenyl-3-methylcyclohex-2-en-1-yl]-5-pentylbenzene-l,3-diol” (ENANTIA, S.L., priority 2017, dated 2021).

Settings: water; cited from earlier work

C=C(C)[C@@H]1CCC(C)=C[C@H]1c1c(O)cc(CCCCC)cc1O [CBD, 2-[(1R,6R)-6-isopropenyl-3-methylcyclohex-2-en-1-yl]-5-pentylbenzene-1,3-diol]
aqueous solubility: about 0.1 ug/mL
